Measurements published in the supplement of paper PMC10849652.
Some of the results follow.

The chains behind the UniProt entries cited, without tags or fusion partners. Where a name states a change or a piece, a line headed by the entry shows the natural chain unless it says otherwise.
UniProt Q13422: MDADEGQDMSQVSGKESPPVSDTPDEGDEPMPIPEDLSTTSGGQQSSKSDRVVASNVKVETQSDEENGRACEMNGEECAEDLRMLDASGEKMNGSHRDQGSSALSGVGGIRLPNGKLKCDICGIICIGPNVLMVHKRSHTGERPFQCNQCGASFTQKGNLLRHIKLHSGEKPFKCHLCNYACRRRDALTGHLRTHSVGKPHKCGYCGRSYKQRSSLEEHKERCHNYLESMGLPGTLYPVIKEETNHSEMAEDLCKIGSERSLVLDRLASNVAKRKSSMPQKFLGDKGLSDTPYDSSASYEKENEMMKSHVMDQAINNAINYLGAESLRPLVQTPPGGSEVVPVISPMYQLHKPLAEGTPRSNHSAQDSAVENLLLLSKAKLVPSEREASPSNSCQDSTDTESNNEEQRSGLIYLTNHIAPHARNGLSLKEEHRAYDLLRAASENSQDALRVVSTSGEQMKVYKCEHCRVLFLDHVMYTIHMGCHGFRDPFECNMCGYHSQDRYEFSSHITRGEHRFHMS
UniProt O14732: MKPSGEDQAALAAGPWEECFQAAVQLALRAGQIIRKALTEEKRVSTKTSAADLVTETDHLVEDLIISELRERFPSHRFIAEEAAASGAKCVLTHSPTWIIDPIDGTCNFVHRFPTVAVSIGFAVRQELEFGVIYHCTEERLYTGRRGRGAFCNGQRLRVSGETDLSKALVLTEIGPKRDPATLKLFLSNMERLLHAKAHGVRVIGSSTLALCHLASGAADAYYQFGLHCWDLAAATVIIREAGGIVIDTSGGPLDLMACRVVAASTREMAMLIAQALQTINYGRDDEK
UniProt Q96G21: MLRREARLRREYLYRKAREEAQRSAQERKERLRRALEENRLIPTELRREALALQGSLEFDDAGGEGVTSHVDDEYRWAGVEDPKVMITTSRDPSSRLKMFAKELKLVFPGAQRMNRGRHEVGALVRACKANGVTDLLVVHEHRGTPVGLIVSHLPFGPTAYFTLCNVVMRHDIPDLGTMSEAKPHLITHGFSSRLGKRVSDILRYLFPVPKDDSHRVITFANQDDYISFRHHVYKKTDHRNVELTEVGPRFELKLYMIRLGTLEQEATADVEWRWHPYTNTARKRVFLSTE
UniProt P24593, whole entry, looked up: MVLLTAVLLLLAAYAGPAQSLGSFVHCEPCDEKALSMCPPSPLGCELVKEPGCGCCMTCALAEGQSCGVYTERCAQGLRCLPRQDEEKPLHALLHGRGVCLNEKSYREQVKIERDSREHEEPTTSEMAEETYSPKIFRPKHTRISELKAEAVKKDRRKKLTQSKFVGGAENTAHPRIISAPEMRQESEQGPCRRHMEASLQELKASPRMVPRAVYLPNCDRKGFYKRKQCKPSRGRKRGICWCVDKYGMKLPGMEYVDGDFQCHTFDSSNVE
UniProt Q9NRY2: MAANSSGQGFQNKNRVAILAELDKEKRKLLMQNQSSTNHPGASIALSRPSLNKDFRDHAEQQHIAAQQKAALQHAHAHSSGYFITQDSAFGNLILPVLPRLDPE
UniProt Q9UK53: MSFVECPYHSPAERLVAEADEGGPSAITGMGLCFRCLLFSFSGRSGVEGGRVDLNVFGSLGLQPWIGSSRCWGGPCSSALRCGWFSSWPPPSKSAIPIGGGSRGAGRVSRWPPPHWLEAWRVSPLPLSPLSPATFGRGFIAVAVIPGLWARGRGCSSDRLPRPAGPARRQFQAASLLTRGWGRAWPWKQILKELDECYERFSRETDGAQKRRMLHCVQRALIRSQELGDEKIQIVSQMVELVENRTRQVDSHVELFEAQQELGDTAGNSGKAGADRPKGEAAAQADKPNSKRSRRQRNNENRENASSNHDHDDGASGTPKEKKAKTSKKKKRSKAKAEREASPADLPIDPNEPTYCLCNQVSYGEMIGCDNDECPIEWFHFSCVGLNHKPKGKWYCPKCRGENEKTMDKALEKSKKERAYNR
UniProt Q27J81, whole entry, looked up: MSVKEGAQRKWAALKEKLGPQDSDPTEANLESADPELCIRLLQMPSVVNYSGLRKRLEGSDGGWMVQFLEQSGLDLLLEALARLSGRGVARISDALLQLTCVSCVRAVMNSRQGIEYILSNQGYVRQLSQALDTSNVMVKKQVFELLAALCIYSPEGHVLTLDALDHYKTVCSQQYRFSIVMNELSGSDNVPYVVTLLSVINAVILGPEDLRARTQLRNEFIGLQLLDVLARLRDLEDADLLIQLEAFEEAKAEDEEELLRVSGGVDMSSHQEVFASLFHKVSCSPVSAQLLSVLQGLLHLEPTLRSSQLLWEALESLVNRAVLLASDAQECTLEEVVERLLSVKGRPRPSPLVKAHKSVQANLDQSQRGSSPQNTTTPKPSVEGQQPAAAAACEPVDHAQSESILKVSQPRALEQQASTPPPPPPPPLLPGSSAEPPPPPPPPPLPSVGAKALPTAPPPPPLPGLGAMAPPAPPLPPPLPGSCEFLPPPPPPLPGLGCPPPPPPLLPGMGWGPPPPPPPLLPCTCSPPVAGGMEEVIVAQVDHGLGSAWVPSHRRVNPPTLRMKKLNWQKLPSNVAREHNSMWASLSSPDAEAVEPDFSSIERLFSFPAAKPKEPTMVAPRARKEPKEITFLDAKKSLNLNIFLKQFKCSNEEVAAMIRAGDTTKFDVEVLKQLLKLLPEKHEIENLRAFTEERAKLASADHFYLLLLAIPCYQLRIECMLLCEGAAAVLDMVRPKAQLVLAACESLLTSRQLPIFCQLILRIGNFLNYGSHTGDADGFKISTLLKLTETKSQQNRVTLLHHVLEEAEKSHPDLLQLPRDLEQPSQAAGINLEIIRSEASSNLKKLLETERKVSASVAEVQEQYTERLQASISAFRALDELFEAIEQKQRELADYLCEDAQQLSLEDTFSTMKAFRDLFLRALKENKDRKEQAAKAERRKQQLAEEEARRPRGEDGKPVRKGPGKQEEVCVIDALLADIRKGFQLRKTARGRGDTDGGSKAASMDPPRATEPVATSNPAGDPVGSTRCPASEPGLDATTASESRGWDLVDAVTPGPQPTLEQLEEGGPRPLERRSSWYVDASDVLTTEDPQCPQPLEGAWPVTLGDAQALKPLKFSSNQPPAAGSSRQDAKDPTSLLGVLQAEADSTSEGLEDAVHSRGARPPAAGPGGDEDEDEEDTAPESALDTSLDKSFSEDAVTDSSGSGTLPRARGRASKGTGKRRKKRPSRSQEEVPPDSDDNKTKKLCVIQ
UniProt P08514, whole entry, looked up: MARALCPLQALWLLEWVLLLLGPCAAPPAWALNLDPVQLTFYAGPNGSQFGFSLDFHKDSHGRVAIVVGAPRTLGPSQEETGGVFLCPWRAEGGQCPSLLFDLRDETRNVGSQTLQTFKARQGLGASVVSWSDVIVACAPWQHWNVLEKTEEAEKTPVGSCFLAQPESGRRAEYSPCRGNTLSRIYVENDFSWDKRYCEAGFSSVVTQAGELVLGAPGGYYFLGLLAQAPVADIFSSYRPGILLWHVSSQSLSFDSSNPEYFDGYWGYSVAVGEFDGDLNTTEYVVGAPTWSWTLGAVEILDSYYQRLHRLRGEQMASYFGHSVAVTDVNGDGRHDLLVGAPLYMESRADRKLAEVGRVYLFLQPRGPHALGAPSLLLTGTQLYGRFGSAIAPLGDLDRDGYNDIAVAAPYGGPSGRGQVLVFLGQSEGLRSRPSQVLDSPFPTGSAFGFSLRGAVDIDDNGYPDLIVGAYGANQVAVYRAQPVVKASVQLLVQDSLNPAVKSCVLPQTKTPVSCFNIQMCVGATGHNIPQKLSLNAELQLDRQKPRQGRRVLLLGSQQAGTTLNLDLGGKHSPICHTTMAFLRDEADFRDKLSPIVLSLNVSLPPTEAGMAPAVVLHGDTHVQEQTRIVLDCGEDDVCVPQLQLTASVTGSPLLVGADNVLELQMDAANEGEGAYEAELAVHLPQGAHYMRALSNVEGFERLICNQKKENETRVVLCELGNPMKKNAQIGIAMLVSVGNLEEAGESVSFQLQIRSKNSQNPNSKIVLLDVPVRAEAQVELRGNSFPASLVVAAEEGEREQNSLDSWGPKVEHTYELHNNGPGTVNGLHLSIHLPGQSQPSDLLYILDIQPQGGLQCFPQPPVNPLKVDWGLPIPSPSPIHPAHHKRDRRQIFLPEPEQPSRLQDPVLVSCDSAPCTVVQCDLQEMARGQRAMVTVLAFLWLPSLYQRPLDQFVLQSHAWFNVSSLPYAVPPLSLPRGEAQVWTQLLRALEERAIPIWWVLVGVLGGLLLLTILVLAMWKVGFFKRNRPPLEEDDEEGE
UniProt Q8N201, whole entry, looked up: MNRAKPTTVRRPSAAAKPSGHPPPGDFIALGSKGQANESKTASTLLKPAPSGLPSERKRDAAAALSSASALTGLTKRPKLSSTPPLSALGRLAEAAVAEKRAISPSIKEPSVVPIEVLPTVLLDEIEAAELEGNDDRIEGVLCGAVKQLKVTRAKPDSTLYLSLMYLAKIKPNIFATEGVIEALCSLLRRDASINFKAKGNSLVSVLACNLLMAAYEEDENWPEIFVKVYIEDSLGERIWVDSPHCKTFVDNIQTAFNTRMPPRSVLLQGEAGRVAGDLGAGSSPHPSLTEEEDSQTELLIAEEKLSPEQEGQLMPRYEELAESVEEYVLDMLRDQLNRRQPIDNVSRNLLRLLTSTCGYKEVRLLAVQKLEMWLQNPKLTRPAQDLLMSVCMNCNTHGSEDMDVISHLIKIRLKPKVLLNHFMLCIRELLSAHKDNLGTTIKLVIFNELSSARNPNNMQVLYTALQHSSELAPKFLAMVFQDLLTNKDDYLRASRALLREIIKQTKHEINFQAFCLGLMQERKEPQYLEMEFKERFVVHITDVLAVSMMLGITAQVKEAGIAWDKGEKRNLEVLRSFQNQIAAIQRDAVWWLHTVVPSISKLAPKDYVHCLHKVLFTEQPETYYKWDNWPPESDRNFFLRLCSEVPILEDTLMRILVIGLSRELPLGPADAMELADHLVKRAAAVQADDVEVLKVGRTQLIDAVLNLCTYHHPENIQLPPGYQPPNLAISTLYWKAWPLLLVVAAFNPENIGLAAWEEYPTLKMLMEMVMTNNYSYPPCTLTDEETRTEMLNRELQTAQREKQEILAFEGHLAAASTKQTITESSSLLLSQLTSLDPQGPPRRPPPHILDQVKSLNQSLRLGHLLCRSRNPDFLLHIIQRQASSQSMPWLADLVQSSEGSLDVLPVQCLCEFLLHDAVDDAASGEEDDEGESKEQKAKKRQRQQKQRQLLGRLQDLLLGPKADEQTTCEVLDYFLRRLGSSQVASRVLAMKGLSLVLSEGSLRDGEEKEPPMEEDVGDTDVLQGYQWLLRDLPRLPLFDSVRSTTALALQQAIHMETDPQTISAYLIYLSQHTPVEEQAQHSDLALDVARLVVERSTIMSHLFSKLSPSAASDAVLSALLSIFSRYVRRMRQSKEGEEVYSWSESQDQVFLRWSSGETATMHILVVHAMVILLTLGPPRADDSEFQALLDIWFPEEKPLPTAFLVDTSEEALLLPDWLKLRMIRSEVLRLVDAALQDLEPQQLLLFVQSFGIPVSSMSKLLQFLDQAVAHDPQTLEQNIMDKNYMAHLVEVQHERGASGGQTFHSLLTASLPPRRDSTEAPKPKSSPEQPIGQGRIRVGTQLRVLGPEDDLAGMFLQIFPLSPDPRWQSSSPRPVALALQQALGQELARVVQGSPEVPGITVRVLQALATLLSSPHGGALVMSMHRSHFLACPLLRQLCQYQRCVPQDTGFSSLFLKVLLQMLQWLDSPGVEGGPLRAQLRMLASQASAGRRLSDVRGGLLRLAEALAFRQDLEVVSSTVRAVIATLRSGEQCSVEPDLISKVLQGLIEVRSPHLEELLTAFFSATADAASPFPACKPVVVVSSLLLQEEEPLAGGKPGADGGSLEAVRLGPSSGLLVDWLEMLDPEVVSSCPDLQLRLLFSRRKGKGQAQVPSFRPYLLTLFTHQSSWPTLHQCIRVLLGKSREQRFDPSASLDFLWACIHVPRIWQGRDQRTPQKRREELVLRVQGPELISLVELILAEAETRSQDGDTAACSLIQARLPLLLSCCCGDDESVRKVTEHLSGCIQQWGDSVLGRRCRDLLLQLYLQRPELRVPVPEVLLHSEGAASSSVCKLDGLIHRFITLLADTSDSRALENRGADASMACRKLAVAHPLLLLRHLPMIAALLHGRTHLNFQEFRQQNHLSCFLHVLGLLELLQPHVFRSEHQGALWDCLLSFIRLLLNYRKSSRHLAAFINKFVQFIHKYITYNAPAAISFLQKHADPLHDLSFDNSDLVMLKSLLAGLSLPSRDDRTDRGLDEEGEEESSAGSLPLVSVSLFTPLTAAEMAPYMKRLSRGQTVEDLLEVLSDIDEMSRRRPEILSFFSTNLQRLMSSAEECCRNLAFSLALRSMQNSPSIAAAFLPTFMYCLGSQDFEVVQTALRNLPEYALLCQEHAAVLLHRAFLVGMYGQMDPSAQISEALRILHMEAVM

Key:
Assay in all cases: log2 fold change, soluble protein after heating vs DMSO (PISA); higher = thermal stabilisation; K562 cells, 10 uM, 30 min; active = over 0.2 and 3.5 SD of the protein, either way, in both replicates (recomputed)
[1] = compound: CC1=C(C=C(C=C1)NC(=O)C2=CC(=CC=C2)C(C)(C)C#N)NC3=CC4=C(C=C3)N=CN(C4=O)C
Procedure, shortened: (§1)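 Aliquots of K562 cells (2×10^6 cells/mL) treated with 10 μM compound for 30 min were heated for 3 min over 48°C-58°C. After pooling and extraction in PBS with 0.5% NP-40 at 4°C, soluble protein from a 21,000xg, 90 min spin was quantified by TMTpro 16plex LC-MS/MS with channel sums equalised. Thermal stability is expressed against control samples, from duplicates, as a log2 fold change.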

[2] = compound: CC1=C(C=C(C=C1)NC(=O)C2=CC(=CC=C2)N(C)C)NC(=O)C3=CC=C(C=C3)O
Procedure, shortened: as §1

vemurafenib = compound: CCCS(=O)(=O)Nc1ccc(F)c(C(=O)c2c[nH]c3ncc(-c4ccc(Cl)cc4)cc23)c1F [vemurafenib]
Procedure, shortened: as §1

[3] = compound: CCCc1cc(C)[nH]c(=O)c1CNC(=O)c1cc(-c2ccnc(N3CCN(C)CC3)c2)cc2c1cnn2C(C)C
Procedure, shortened: as §1

givinostat = compound: CCN(CC)Cc1ccc2cc(COC(=O)Nc3ccc(C(=O)NO)cc3)ccc2c1 [givinostat]
Procedure, shortened: as §1

barasertib = compound: CCN(CCCOc1ccc2c(Nc3cc(CC(=O)Nc4cccc(F)c4)[nH]n3)ncnc2c1)CCOP(=O)(O)O [barasertib]
Procedure, shortened: as §1

[4] = compound: CC[C@H](C)N1C=C(C2=C(C=C(C=C21)C3=CN=C(C=C3)N4CCNCC4)C(=O)NCC5=C(C=C(NC5=O)C)C)C
Procedure, shortened: as §1

[5] = compound: CN(C)CC(=O)Nc1ccc2[nH]c(=O)c3ccccc3c2c1
Procedure, shortened: as §1

[6] = compound: CC1=CC=C(C=C1)SC2=C3C=C(SC3=CN=C2)C(=O)N
Procedure, shortened: as §1

[7] = compound: CCCS(=O)(=O)Nc1ccc(F)c(C(=O)c2c[nH]c3ncc(Cl)cc23)c1F
Procedure, shortened: as §1

[8] = compound: CC[C@@H]1C(=O)N(C)c2cnc(Nc3ccc(C(=O)NC4CCN(C)CC4)cc3OC)nc2N1C1CCCC1
Procedure, shortened: as §1

volasertib = compound: CC[C@@H]1C(=O)N(C)c2cnc(Nc3ccc(C(=O)N[C@H]4CC[C@H](N5CCN(CC6CC6)CC5)CC4)cc3OC)nc2N1C(C)C [volasertib]
Procedure, shortened: as §1

[9] = compound: CCn1c(C(=O)N(C2CC2)C2CC2)cc2c3c(ncn3C)c(Nc3cc(C)n(C)n3)nc21
Procedure, shortened: as §1

[10] = compound: CCn1cc(-c2ccnc3[nH]c(-c4cccc(CN(C)C)c4)cc23)c(-c2ccc(NC(=O)N(C)C)cc2)n1
Procedure, shortened: as §1

rosiglitazone = compound: CN(CCOC1=CC=C(C=C1)C[C@H]2C(=O)NC(=O)S2)C3=CC=CC=N3 (racemic) [rosiglitazone]
Procedure, shortened: as §1

[11] = compound: CN1C2=C(C3=C1C(=O)N(N=C3)CC4=CC(=CC=C4)N)SC(=C2)S(=O)C
Procedure, shortened: as §1

[12] = compound: CN1CCC(CNc2ccc3ncc(-c4cccc(OC(F)(F)F)c4)n3n2)CC1
Procedure, shortened: as §1

Nexturastat A = compound: CCCCN(Cc1ccc(C(=O)NO)cc1)C(=O)Nc1ccccc1 [Nexturastat A]
Procedure, shortened: as §1

epoxomicin = compound: CC[C@H](C)[C@@H](C(=O)N[C@@H]([C@@H](C)O)C(=O)N[C@@H](CC(C)C)C(=O)[C@]1(CO1)C)NC(=O)[C@H]([C@@H](C)CC)N(C)C(=O)C [epoxomicin]
Procedure, shortened: as §1

[13] = compound: CC1=NC(=CC=C1)C2=C(N=C(N2)C(C)(C)C)C3=CC4=NC=CN=C4C=C3
Procedure, shortened: as §1

Measured: log2 fold change

IKZF1 isoform 2 (UniProt Q13422)
inactive: [1] 0.141 | [2] -0.068 | vemurafenib 0.095 | [3] -0.002 | givinostat -0.135 | barasertib -0.08 | [4] -0.011 | [5] -0.043

IMPA2 (UniProt O14732)
inactive: [1] 0.038 | [2] -0.011 | [6] -0.008 | vemurafenib 0.064 | [7] 0.061 | [3] -0.014 | givinostat 0.039 | barasertib 0.112 | [8] 0.004 | volasertib 0.026 | [9] -0.011 | [10] -0.116 | [5] 0.215 | rosiglitazone -0.006 | [11] 0.006 | [12] -0.035

IMP4 (UniProt Q96G21)
inactive: [1] -0.065 | [2] 0.07 | [10] 0.163 | [11] 0.022 | [12] 0.273

IP6K1 (UniProt Q92551)
inactive: [1] 0.443 | [2] 0.022 | Nexturastat A 0.232 | [7] -0.015 | [3] 0.068 | givinostat -0.008 | barasertib 0.259 | [8] 0.127 | volasertib -0.176 | epoxomicin 0 | [10] 0.028 | [11] 0.147 | [12] -0.052

IGFBP5 (UniProt P24593)
inactive: [1] -0.296 | Nexturastat A 0.083 | vemurafenib 0.04 | [3] -0.063 | givinostat 0.118 | epoxomicin -0.298 | [9] -0.088 | [5] -0.039

INIP (UniProt Q9NRY2)
inactive: [1] 0.25 | [6] 0.086 | Nexturastat A 0.205 | vemurafenib 0.024 | [7] 0.12 | [3] 0.016 | [8] 0.15 | volasertib 0.053 | [4] -0.007 | epoxomicin 0.504 | [5] 0.057

IGKC (UniProt P01834)
inactive: [1] -0.097 | [2] 0.42 | [13] -0.493 | vemurafenib -0.047 | [3] -0.254 | givinostat 0.073 | barasertib 0.543 | [8] -0.039 | [4] 1.32 | [9] -0.341 | [5] 0.233 | rosiglitazone -0.021

ING1 (UniProt Q9UK53)
inactive: [1] -0.159 | [13] 0.057 | [3] -0.027 | barasertib 0.121 | [8] 0.078 | rosiglitazone -0.197

Taken from the entries so far (three entries):
IP6K1 (UniProt Q92551)
inactive: [1] 0.443 | [2] 0.022 | Nexturastat A 0.232 | [7] -0.015 | [3] 0.068 | givinostat -0.008 | barasertib 0.259 | [8] 0.127 | volasertib -0.176 | epoxomicin 0 | [10] 0.028 | [11] 0.147 | [12] -0.052

IGFBP5 (UniProt P24593)
inactive: [1] -0.296 | Nexturastat A 0.083 | vemurafenib 0.04 | [3] -0.063 | givinostat 0.118 | epoxomicin -0.298 | [9] -0.088 | [5] -0.039

INIP (UniProt Q9NRY2)
inactive: [1] 0.25 | [6] 0.086 | Nexturastat A 0.205 | vemurafenib 0.024 | [7] 0.12 | [3] 0.016 | [8] 0.15 | volasertib 0.053 | [4] -0.007 | epoxomicin 0.504 | [5] 0.057

Remaining list, next part

IGLL5 (UniProt B9A064)
inactive: [1] -0.095 | [6] 0.091 | [13] -0.04 | [7] -0.204 | [3] -0.388 | barasertib 0.137 | [8] 0.016 | volasertib 0.045 | [4] 0.971 | [10] -0.001 | rosiglitazone -0.057 | [12] -0.144

INF2 (UniProt Q27J81)
inactive: [1] -0.073 | [2] -0.002 | [13] -0.14 | Nexturastat A -0.006 | [3] 0.041 | barasertib 0.043 | [4] -0.058 | epoxomicin 0.128 | rosiglitazone 0.057 | [11] 0.363

ITGA2B (UniProt P08514)
inactive: [1] -0.071 | [2] 0.064 | [6] -0.058 | [13] -0.052 | Nexturastat A 0.121 | vemurafenib -0.105 | [7] 0.134 | givinostat 0.09 | volasertib 0.134 | [4] -0.211 | epoxomicin -0.089 | [10] -0.173 | [5] 0.067 | [11] 0.117 | [12] -0.07

INTS1 (UniProt Q8N201)
inactive: [1] -0.273 | [2] -0.057 | Nexturastat A 0.289 | [3] -0.16 | givinostat -0.109 | [8] 0.079 | [4] -0.245 | epoxomicin -0.178 | [9] -0.037 | [10] 0.013 | [11] 0.018 | [12] -0.258
